Test in all cases: EMSA
In general terms: A gel shift assay detects complexes by their altered migration in electrophoresis.

The target of data set [1] is T1, Gmet_0936 N77H (H6) (Geobacter metallireducens GS-15) (UniProt Q39X46).
T1 sequence (looked up): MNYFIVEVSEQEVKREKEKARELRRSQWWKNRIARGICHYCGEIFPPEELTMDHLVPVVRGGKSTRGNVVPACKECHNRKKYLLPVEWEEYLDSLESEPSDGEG
The following applies: no divalent cations, 2-3 complexes at 20-fold molar excess of protein; EMSA: room temperature, 20 min, binding buffer without divalent cations (composition, salt and pH not given), 10% polyacrylamide gel; 1x = 0.5 ug protein, 1/2x to 8x; recombinant protein; residues 1-104; protein details: C-terminal 6xHis; label: 3'-FAM on strand 2.

In data set [2] the target is T2, Gmet_0936 (Gme HNHE), 6xHis (Geobacter metallireducens GS-15) (UniProt Q39X46).
T2 sequence (looked up): T1 sequence (looked up) with H77N
As to conditions: no divalent cations, 2-3 complexes at 20-fold molar excess of protein; EMSA: room temperature, 20 min, binding buffer without divalent cations (composition, salt and pH not given), 10% polyacrylamide gel; 1x = 0.5 ug protein, 1/2x to 8x; recombinant protein; residues 1-104; protein details: C-terminal LEH6; label: 3'-FAM on strand 2.

Data set [3] relates to N.Bsu (Bsu HNH nicking endonuclease) (Bacillus subtilis). As to conditions: no divalent cations, high molecular weight complex; EMSA: room temperature, 20 min, binding buffer without divalent cations (composition, salt and pH not given), 10% polyacrylamide gel; 1x = 0.5 ug protein, 1/2x to 8x; recombinant protein; label: 3'-FAM on strand 2.

Residue numbers refer to the chain shown, from its start. For part of these data: The comparison behind a weaker result is the experiment's own reference, which may not be listed here. For part of these data: Protein sequences can lack the tags named with them. For part of these data: For at least one entry, the source does not settle the construct or the ends of the probe.

With “ACGATAGTTACCGGATAAGGCGCAGCGG (double strand) [ACCGG duplex (oligo 1/oligo 2)]”, the figures for the binding result in data set [1], in data set [2] and in data set [3] were “binds more weakly”, “binds more weakly” and “binds”, respectively.

The values above are taken from article PMC3765158, “Structure Determination and Biochemical Characterization of a Putative HNH Endonuclease from Geobacter metallireducens GS-15” (PLoS ONE, 2013).
